Experimental data: PubChem BioAssay AID1259308 (NCATS, 2017)

- Purpose: 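Genes whose loss raises luciferase production in HEK293 cells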 (primary screen)
- Cells: human HEK293 embryonic kidney cells stably expressing firefly luciferase (HEK-CMV-Luc2-Hygro)
- Knock-down reagent: single siRNA against human genes, 0.8 pmol siRNA per well
- Time to read-out: 72 h
- Read-out: 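Luciferase light (ONE-Glo) measured on one replicate plate set and viability (CellTiter-Glo) on the other, scaled to a negative control siRNA, with robust z-scores and luciferase per cell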
- Reading the numbers: total luciferase, z-score: higher = more reporter protein produced
- Rule for the call: 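Active when the median/MAD z-score for overall luciferase is greater than 3; a gene was taken forward for validation with new siRNAs if at least two of its three siRNAs passed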
- Meaning of the calls: active = raised luciferase; inactive = no rise
In all, the deposit lists about 59,000 reagents; below is an unselected part. Of all reagents, about 1,510 (2.6%) got an active call. 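Calls use total luciferase alone and ignore viability, so some active siRNAs may act by altering cell number.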 Entries without a mark were called inactive. Reagents against one gene are numbered here. Further read-outs or replicates are left out here. No sequences are given here.

total luciferase, z-score, by target gene and reagent
GPR39 (G protein-coupled receptor 39): #1 0.182; #2 -0.231; #3 -0.686
ART1 (ADP-ribosyltransferase 1): #1 -0.849; #2 -0.514; #3 0.482
EDA2R (ectodysplasin A2 receptor): #1 -0.93; #2 0.603; #3 -0.597
MICA (MHC class I polypeptide-related sequence A): #1 0.0336; #2 0.778; #3 -0.103
SLC43A1: #1 -2.69; #2 -0.0506; #3 -1.34
SPATC1 (spermatogenesis and centriole associated 1): #1 0.199; #2 0.496; #3 0.127
FKBP4 (FKBP prolyl isomerase 4): #1 -0.243; #2 1.05; #3 0.0557
C10orf90 (chromosome 10 open reading frame 90): #1 -0.708; #2 0.435; #3 -0.526
USP20 (ubiquitin specific peptidase 20): #1 2.18; #2 2.38; #3 0.153
FOXP2 (forkhead box P2): #1 0.557; #2 0.598; #3 0.413
PUS3 (pseudouridine synthase 3): #1 0.973; #2 -0.616; #3 -0.323
LINC00330 (long independently transcribed non-coding RNA 330): #1 0.52; #2 -0.0985; #3 -1.55
CYB5A (cytochrome b5 type A): #1 1.75; #2 1.39; #3 -0.245
TTLL6 (tubulin tyrosine ligase like 6): #1 -1.03; #2 0.503; #3 -0.705
CNTD1 (cyclin N-terminal domain containing 1): #1 -0.326; #2 0.684; #3 -1.55
LINC00703 (long independently transcribed non-coding RNA 703): #1 -0.87; #2 -0.283; #3 -1.21
CYP3A43 (cytochrome P450 family 3 subfamily A member 43): #1 -1.71; #2 0.86; #3 0.277
TTF2 (transcription termination factor 2): #1 -1.09; #2 -0.128; #3 0.209
ODR4 (odr-4 GPCR localization factor homolog): #1 0.82; #2 -1.26; #3 -0.566

A few values from above.
Result for MICA (MHC class I polypeptide-related sequence A) #1 under “total luciferase, z-score”: 0.0336
Entry of SPATC1 (spermatogenesis and centriole associated 1) #1 under “total luciferase, z-score”: 0.199
PUS3 (pseudouridine synthase 3) #1, total luciferase, z-score: 0.973
Entry for SPATC1 (spermatogenesis and centriole associated 1) #3 under “total luciferase, z-score”: 0.127
Result of C10orf90 (chromosome 10 open reading frame 90) #3 under “total luciferase, z-score”: -0.526
Result of USP20 (ubiquitin specific peptidase 20) #1 under “total luciferase, z-score”: 2.18
